Measured values taken from the supplement of paper PMC8728848.
This is one part of the list.

Legend:
Test in all cases: glycan array binding signal (z-score within array); higher = stronger binding
Conditions in all cases: glycan notation: IUPAC condensed, linker removed
[1] = molecular target: Gal(b1-3)GlcNAc(b1-2)Man(a1-3)[Gal(b1-3)GlcNAc(b1-2)Man(a1-6)]Man(b1-4)GlcNAc(b1-4)[Fuc(a1-6)]GlcNAc
Outline: (§1)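 Glycan array binding is given as a within-array Z-score, which can be read as non-binding when negative. The arrays, 3228 of them, came from the Consortium for Functional Glycomics database and were retained only where the protein sequence was available. Z-scores were averaged across arrays of the same protein sequence at different concentrations or buffers and across linkers.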

[2] = molecular target: Gal(b1-3)GlcNAc(b1-2)Man(a1-3)[GlcNAc(b1-4)][Gal(b1-3)GlcNAc(b1-2)Man(a1-6)]Man(b1-4)GlcNAc(b1-4)GlcNAc
Outline: as §1

[3] = molecular target: Gal(b1-3)GlcNAc(b1-2)[Gal(b1-3)GlcNAc(b1-6)]Man(a1-6)[Gal(b1-3)GlcNAc(b1-2)Man(a1-3)]Man(b1-4)GlcNAc(b1-4)GlcNAc
Outline: as §1

[4] = molecular target: Gal(b1-3)GlcNAc(b1-3)Gal(b1-3)GlcNAc
Outline: as §1

[5] = molecular target: Gal(b1-3)GlcNAc(b1-3)Gal(b1-4)Glc
Outline: as §1

[6] = molecular target: Gal(b1-3)GlcNAc(b1-3)Gal(b1-4)GlcNAc
Outline: as §1

[7] = molecular target: Gal(b1-3)GlcNAc(b1-3)Gal(b1-4)GlcNAc(b1-2)Man(a1-3)[Gal(b1-3)GlcNAc(b1-3)Gal(b1-4)GlcNAc(b1-2)Man(a1-6)]Man(b1-4)GlcNAc(b1-4)GlcNAc
Outline: as §1

[8] = molecular target: Gal(b1-3)GlcNAc(b1-3)Gal(b1-4)GlcNAc(b1-2)[Gal(b1-3)GlcNAc(b1-3)Gal(b1-4)GlcNAc(b1-6)]Man(a1-6)[Gal(b1-3)GlcNAc(b1-3)Gal(b1-4)GlcNAc(b1-2)Man(a1-3)]Man(b1-4)GlcNAc(b1-4)[Fuc(a1-6)]GlcNAc
Outline: as §1

[9] = molecular target: Gal(b1-3)GlcNAc(b1-3)Gal(b1-4)GlcNAc(b1-3)Gal(b1-4)GlcNAc(b1-2)[Gal(b1-3)GlcNAc(b1-3)Gal(b1-4)GlcNAc(b1-3)Gal(b1-4)GlcNAc(b1-6)]Man(a1-6)[Gal(b1-3)GlcNAc(b1-3)Gal(b1-4)GlcNAc(b1-3)Gal(b1-4)GlcNAc(b1-2)Man(a1-3)]Man(b1-4)GlcNAc(b1-4)[Fuc(a1-6)]GlcNAc
Outline: as §1

[10] = molecular target: Gal(b1-3)GlcNAc(b1-3)Gal(b1-4)GlcNAc(b1-6)[Gal(b1-3)GlcNAc(b1-3)]Gal(b1-4)Glc
Outline: as §1

[11] = molecular target: Gal(b1-3)GlcNAc(b1-3)Gal(b1-4)[Fuc(a1-3)]GlcNAc
Outline: as §1

[12] = molecular target: Gal(b1-3)GlcNAc(b1-3)Gal(b1-4)[Fuc(a1-3)]GlcNAc(b1-6)[Gal(b1-3)GlcNAc(b1-3)]Gal(b1-4)Glc
Outline: as §1

[13] = molecular target: Gal(b1-3)GlcNAc(b1-3)GalNAc
Outline: as §1

[14] = molecular target: Gal(b1-3)GlcNAc(b1-6)Gal(b1-4)GlcNAc
Outline: as §1

[15] = molecular target: Gal(b1-3)GlcNAc(b1-6)GalNAc
Outline: as §1

[16] = molecular target: Gal(b1-3)GlcNAc(b1-6)[Gal(b1-3)]GalNAc
Outline: as §1

Gal(b1-3)GlcNAc6S = molecular target: Gal(b1-3)GlcNAc6S
Outline: as §1

[17] = molecular target: Gal(b1-3)[Fuc(a1-4)]GlcNAc
Outline: as §1

[18] = molecular target: Gal(b1-3)[Fuc(a1-4)]GlcNAc(b1-2)Man
Outline: as §1

[19] = molecular target: Gal(b1-3)[Fuc(a1-4)]GlcNAc(b1-2)Man(a1-3)[Gal(b1-3)[Fuc(a1-4)]GlcNAc(b1-2)Man(a1-6)]Man(b1-4)GlcNAc(b1-4)[Fuc(a1-6)]GlcNAc
Outline: as §1

[20] = molecular target: Gal(b1-3)[Fuc(a1-4)]GlcNAc(b1-3)Gal(b1-3)[Fuc(a1-4)]GlcNAc
Outline: as §1

[21] = molecular target: Gal(b1-3)[Fuc(a1-4)]GlcNAc(b1-3)Gal(b1-4)[Fuc(a1-3)]GlcNAc
Outline: as §1

[22] = molecular target: Gal(b1-3)[Fuc(a1-4)]GlcNAc(b1-6)GalNAc
Outline: as §1

[23] = molecular target: Gal(b1-3)[GlcNAc(b1-6)]GalNAc
Outline: as §1

[24] = molecular target: Gal(b1-3)[Neu5Ac(a2-6)]GalNAc
Outline: as §1

[25] = molecular target: Gal(b1-3)[Neu5Ac(a2-6)]GlcNAc(b1-4)Gal(b1-4)Glc
Outline: as §1

[26] = molecular target: Gal(b1-3)[Neu5Ac(b2-6)]GalNAc
Outline: as §1

Gal(b1-4)Gal = molecular target: Gal(b1-4)Gal
Outline: as §1

[27] = molecular target: Gal(b1-4)GalNAc(a1-3)[Fuc(a1-2)]Gal(b1-4)GlcNAc
Outline: as §1

[28] = molecular target: Gal(b1-4)GalNAc(b1-3)[Fuc(a1-2)]Gal(b1-4)GlcNAc
Outline: as §1

Gal(b1-4)Glc = molecular target: Gal(b1-4)Glc
Outline: as §1

Gal(b1-4)Glc6S = molecular target: Gal(b1-4)Glc6S
Outline: as §1

Gal(b1-4)GlcNAc = molecular target: Gal(b1-4)GlcNAc
Outline: as §1

[29] = molecular target: Gal(b1-4)GlcNAc(a1-6)Gal(b1-4)GlcNAc
Outline: as §1

Gal(b1-4)GlcNAc(b1-2)Man = molecular target: Gal(b1-4)GlcNAc(b1-2)Man
Outline: as §1

[30] = molecular target: Gal(b1-4)GlcNAc(b1-2)Man(a1-3)Man(b1-4)GlcNAc(b1-4)GlcNAc
Outline: as §1

[31] = molecular target: Gal(b1-4)GlcNAc(b1-2)Man(a1-3)[Gal(b1-4)GlcNAc(b1-2)Man(a1-6)]Man(b1-4)GlcNAc(b1-4)GlcNAc
Outline: as §1

[32] = molecular target: Gal(b1-4)GlcNAc(b1-2)Man(a1-3)[Gal(b1-4)GlcNAc(b1-2)Man(a1-6)]Man(b1-4)GlcNAc(b1-4)[Fuc(a1-6)]GlcNAc
Outline: as §1

[33] = molecular target: Gal(b1-4)GlcNAc(b1-2)Man(a1-3)[Gal(b1-4)GlcNAc(b1-2)Man(a1-6)][Gal(b1-4)GlcNAc(b1-4)]Man(b1-4)GlcNAc(b1-4)[Fuc(a1-6)]GlcNAc
Outline: as §1

[34] = molecular target: Gal(b1-4)GlcNAc(b1-2)Man(a1-3)[Gal(b1-4)GlcNAc(b1-2)Man(a1-6)][GlcNAc(b1-4)]Man(b1-4)GlcNAc(b1-4)[Fuc(a1-6)]GlcNAc
Outline: as §1

[35] = molecular target: Gal(b1-4)GlcNAc(b1-2)Man(a1-3)[GlcNAc(b1-2)Man(a1-6)]Man(b1-4)GlcNAc(b1-4)GlcNAc
Outline: as §1

[36] = molecular target: Gal(b1-4)GlcNAc(b1-2)Man(a1-3)[GlcNAc(b1-4)][Gal(b1-4)GlcNAc(b1-2)Man(a1-6)]Man(b1-4)GlcNAc(b1-4)GlcNAc
Outline: as §1

[37] = molecular target: Gal(b1-4)GlcNAc(b1-2)Man(a1-3)[Man(a1-6)]Man(b1-4)GlcNAc(b1-4)GlcNAc
Outline: as §1

[38] = molecular target: Gal(b1-4)GlcNAc(b1-2)Man(a1-6)Man(b1-4)GlcNAc(b1-4)GlcNAc
Outline: as §1

[39] = molecular target: Gal(b1-4)GlcNAc(b1-2)Man(a1-6)[GlcNAc(b1-2)Man(a1-3)]Man(b1-4)GlcNAc(b1-4)GlcNAc
Outline: as §1

B1: PX9961K-bvu-480-28-480 (Bacteroides vulgatus) (protein)
chain: NKIPTTMAFRTVTDVDNAVNGLYDLMSGSGYYGAAMFAYGDMKGDDMQSSEESGVCNTCYMFNHRPNSLNAGSLWGRPFYILREAWNILNAIAEGKIESGDEKKLNALKGETMAVIALCQFDLTRCFGYPYTKDKGASLGAPLIDHLVGTYENPPRSTVAQAYDFIIETLEEAVTLMSEEKNNGRMNKYAARALLARIYLYHDDNRKAFDLADQLIKDADTSGSYALYPHEKYVAAWSVEAKFGSESFFEIANSVDDTPGRDSWGYLLNWYGYQKGFVTQKYAEQMLADPGDVRGHLLEENKYAGKTVWWLYKLRGTDLKTAPLECNNVVLRLSEVYLIAAEAGCKLGGDAAVQGLGYLNEIVKRGNPDNEVTMADYTLDRVLDERSKELVGEGHRFFDLLRNGKTIVRKGGYHLPSVDEEVDWDFYKCVLPIPEDQFIFSPEMEQNPGYPKN
glycan array binding signal (z-score) [1]: -0.506 | glycan array binding signal (z-score) [2]: 0.411 | glycan array binding signal (z-score) [3]: 0.78 | glycan array binding signal (z-score) [4]: -0.178 | glycan array binding signal (z-score) [5]: 0.505 | glycan array binding signal (z-score) [6]: -0.427 | glycan array binding signal (z-score) [7]: 0.157 | glycan array binding signal (z-score) [8]: 1.17 | glycan array binding signal (z-score) [9]: 0.451 | glycan array binding signal (z-score) [10]: -0.362 | glycan array binding signal (z-score) [11]: -0.351 | glycan array binding signal (z-score) [12]: -0.479 | glycan array binding signal (z-score) [13]: -0.178 | glycan array binding signal (z-score) [14]: -0.025 | glycan array binding signal (z-score) [15]: -1.11 | glycan array binding signal (z-score) [16]: -0.641 | glycan array binding signal (z-score) (Gal(b1-3)GlcNAc6S): -1.05 | glycan array binding signal (z-score) [17]: 0.475 | glycan array binding signal (z-score) [18]: 0.872 | glycan array binding signal (z-score) [19]: 0.986 | glycan array binding signal (z-score) [20]: -0.658 | glycan array binding signal (z-score) [21]: 0.065 | glycan array binding signal (z-score) [22]: 0.058 | glycan array binding signal (z-score) [23]: 0.036 | glycan array binding signal (z-score) [24]: -0.758 | glycan array binding signal (z-score) [25]: -0.858 | glycan array binding signal (z-score) [26]: -0.345 | glycan array binding signal (z-score) (Gal(b1-4)Gal): -0.623 | glycan array binding signal (z-score) [27]: -0.623 | glycan array binding signal (z-score) [28]: -0.265 | glycan array binding signal (z-score) (Gal(b1-4)Glc): -0.177 | glycan array binding signal (z-score) (Gal(b1-4)Glc6S): 0.867 | glycan array binding signal (z-score) (Gal(b1-4)GlcNAc): -0.016 | glycan array binding signal (z-score) [29]: -0.426 | glycan array binding signal (z-score) (Gal(b1-4)GlcNAc(b1-2)Man): -0.364 | glycan array binding signal (z-score) [30]: -0.19 | glycan array binding signal (z-score) [31]: -0.34 | glycan array binding signal (z-score) [32]: 0.939 | glycan array binding signal (z-score) [33]: -0.167 | glycan array binding signal (z-score) [34]: -0.521 | glycan array binding signal (z-score) [35]: 0.42 | glycan array binding signal (z-score) [36]: -0.407 | glycan array binding signal (z-score) [37]: 0.569 | glycan array binding signal (z-score) [38]: -0.347 | glycan array binding signal (z-score) [39]: -0.606
